Source: patent US7064218B2, “Aromatic compounds and poly(oxyalkylene) containing aromatic compounds possessing antibacterial, antifungal or antitumor activity” (Genelabs Technologies, Inc., priority 2001, dated 2006)
Some of these results come from one statement about several compounds together. At least one compound was matched to its structure with a doubt left.

Tested on: yeast and aspergillus species
Assay: Minimum Inhibitory Concentration (MIC) assay, yeast and filamentous fungi
Assay type: cell-based, Candida albicans; Aspergillus fumigatus
Settings: complete inhibition of visible growth, 48 h at 35 C
Protocol: These assays are adapted from NCCLS protocols M7-A4 and M27-A (NCCLS vol 17:9 and vol 17:2) as modified by Sandven, S. Clin. Micro. (1999) 37:12, p. 3856–3859. MIC values for Aspergillus fumigatus were determined using NCCLS protocol M38-P.
All compounds were dissolved in 100% DMSO to a stock concentration of 10 mM and use fresh or stored at −80° C. Stock compounds were kept frozen until needed and used freshly with no more then one freeze-thaw cycle. When used for test purposes, compounds were diluted in the appropriate media depending on the organism being tested.
For yeast and aspergillus species, seven 1:2 serial dilutions of compound in appropriate media buffered with MOPS at pH 7.0 were prepared such that the final starting test compound concentrations were 50.0 uM for yeast and 50 uM aspergillus species. For bacteria, dilutions were made in growth media used for the particular bacteria being tested.
Five well-separated colonies from a 24 hr Sabouraud Dextrose plate incubated at 35 C were picked and resuspended into 5.0 ml of normal saline. The O.D.530 was read and the culture was adjusted to 0.5 McFarland units with normal saline. A 1:2000 dilution was made with RPMI 1640 media buffered with MOPS at pH 7.0 and 100 μL of this inoculum preparation was added to an equal volume of test compound-containing media. […]

Compound: CCNC(=N)CNC(=O)c1cc(NC(=O)c2ccc(C(=O)Nc3cc(C(=O)NCC(=N)NCC)n(CC4CC4)c3)cc2)cn1CC1CC1 [Compound 285, N,N′-Bis-{1-cyclopropylmethyl-5-[(N-ethylcarbamimidoylmethyl)-carbamoyl]-1H-pyrrol-3-yl}-terephthalamide]
- MIC (antifungal activity): < 45.5 µM
